At least one structure is not confirmed: it was looked up by name or label, or the drawing left a doubt.
Columns and labels:
Type in all cases: in vivo, human
Details in all cases: healthy subjects, 20 mg versus placebo
insulin = assay: Serum insulin concentration, post-prandial cross-over study
Protocol: (§1) The design was a randomized, double blind, placebo controlled, crossover study (FIG. 1). Participants were randomized to receive 20 mg of oleuropein or 20 mg of placebo immediately before a lunch. The randomization was carried out by a procedure based on a random numeric sequence. Placebo and active capsules were identical in appearance and both were odourless. The quality control on both capsules was performed confirming their safety. None of the participants were receiving any vitamin or antioxidant supplements, statin or antiplatelet drugs in the month preceding the beginning of the study. Others exclusion criteria were: i) presence of malignancy, ii) presence of chronic inflammatory diseases, iii) alcohol intake, iv) smoking, v) pregnant or breast-feeding, vi) age less than 18 years. […] Participants were assessed at baseline (T0) and two hours after lunch (T120). Glycaemic profile, which included glucose, insulin, dipeptidyl-peptidase-4 (DPP-4) activity and glucagon-like peptide-(GLP-1) and oxidative stress, which included sNox2-dp, 8-iso-PGF2α and platelet p47phox phosphorylation, were analysed before and two hours after meal. […]
Glucose and insulin were measured in serum samples using ELISA commercial Kit (Arbor Assay and DRG International, respectively). Glucose values were expressed as mg/dl whereas insulin values were expressed as μIU/ml.

GLP1 = assay: Serum glucagon like peptide-1 (GLP1) concentration, post-prandial cross-over study
Protocol: as §1
Commercial ELISA Kit (DRG International) was used for the quantitative determination of bioactive GLP1 (7-36) and (9-36) levels in serum. GLP1 values are expressed as pmol/L.

DPP-4 = assay: Serum dipeptidyl peptidase-4 (DPP-4) activity, post-prandial cross-over study
Protocol: as §1
DDP4 activity was evaluated in serum samples by a commercial assay (Sigma Aldrich). […] DDP4 activity was expressed as μU/ml, where one unit of DPP4 is the amount of enzyme that will hydrolyze the DPP4 substrate to yield 1.0 μmole of AMC per minute at 37° C.

Compound: C/C=C1/[C@H](O[C@@H]2O[C@H](CO)[C@@H](O)[C@H](O)[C@H]2O)OC=C(C(=O)OC)[C@H]1CC(=O)OCCc1ccc(O)c(O)c1 [oleuropein]
- insulin, effect in words (insulin): significant increase
- blood activity of GLP1, effect in words (GLP1): significantly increased
- DPP4 activity, effect in words (DPP-4): significantly decreases

Reference: patent US20210169910A1, “OLEUROPEIN FOR USE IN REDUCING POST-PRANDIAL GLYCAEMIA” (Università degli Studi di Roma "La Sapienza", priority 2017, published 2021)
